# Test results as given in patent US7285556B2, “Thienopyrimidine-based inhibitors of the src family” (Board of Regents, The University of Texas Systems, priority 2000, dated 2007).
# Chains of the proteins cited; added tags and fusions are not shown.
# UniProt P12931, whole entry: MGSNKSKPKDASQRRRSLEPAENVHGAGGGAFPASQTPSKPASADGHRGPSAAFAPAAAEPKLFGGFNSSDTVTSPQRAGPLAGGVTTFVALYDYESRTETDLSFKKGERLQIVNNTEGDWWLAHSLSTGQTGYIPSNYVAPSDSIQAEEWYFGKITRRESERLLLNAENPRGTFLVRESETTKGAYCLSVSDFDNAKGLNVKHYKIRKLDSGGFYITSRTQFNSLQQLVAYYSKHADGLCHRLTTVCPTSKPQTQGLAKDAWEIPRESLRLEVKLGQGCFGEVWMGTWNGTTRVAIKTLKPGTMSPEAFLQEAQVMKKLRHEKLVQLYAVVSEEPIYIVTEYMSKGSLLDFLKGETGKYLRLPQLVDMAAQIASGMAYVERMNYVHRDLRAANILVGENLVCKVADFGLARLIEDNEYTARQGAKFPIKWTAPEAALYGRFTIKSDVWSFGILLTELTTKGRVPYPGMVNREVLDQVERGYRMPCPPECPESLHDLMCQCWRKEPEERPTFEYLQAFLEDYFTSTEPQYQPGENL
# Where two headings read alike, the source gives them in different places. Some results were stated once for a whole list of compounds, not compound by compound. At least one compound was matched to its structure with a doubt left.
# Target: T1, Recombinant human Src (Homo sapiens, UniProt P12931)
# T1 construct: made in house; host or cells: baculovirus-insect cell system
# Experiment: Src tyrosine kinase activity, poly E4Y and 32P-ATP
# Assay type: biochemical
# Description: Recombinant human Src was expressed using the baculovirus-insect cell system and purified as published (Budde et al., 1993 and 2000). Recombinant Csk and the FGF receptor (FGFr) were expressed as glutathione-S-transferase fusion proteins using the pGEX expression vector and E. coli, and purified as described (Sun & Budde, 1995).
# The tyrosine kinase activity of Src, Csk and FGFr was determined using poly E4Y and ^32P-ATP. Briefly, enzymes were assayed in a reaction mixture consisting of 0.15 M EPPS-NaOH (pH 8.0) with 6 mM MgCl2, 0.2 mM γ^32P-ATP (0.2-0.4 mCi/μmol), 10% glycerol, 0.1% Triton X-100, and poly E4Y. Poly E4Y is a synthetic peptide whose phosphorylation is measured in this assay by the addition of the radioactively labeled phosphate from the ATP (Budde et al., 1995). […] When ATP was varied (0, 50, 100 and 250 μM), poly E4Y was kept constant at 150 μg/ml.
structure (smiles),measurement,setting,value
"C(=NNc1ncnc2cc(-c3ccsc3)sc12)c1cccnc1 [Compound 223, 3-Pyridinecarboxaldehyde(6-(3-thienyl)thieno[3,2-d]pyrimidin-4-yl)hydrazone]",IC50,"Table 2, read-out: Src IC50 (especially good inhibitors of Src)",≤ 2000 nM
same,IC50,read-out: IC50 (preferred compounds for treatment of Src family-related disease),< 2000 nM
